PMC8327961, “Nse5/6 inhibits the Smc5/6 ATPase and modulates DNA substrate binding” (The EMBO Journal, 2021)
No constants are given. Whether binding was seen depends on the method and setting. Some binding calls cover weakened binding; strength is not graded here.

How the values were obtained:
Smc6-3C-Twin-Strep [1] = molecular target: T1, Smc6-3C-Twin-Strep (S. cerevisiae, UniProt Q12749 1-1114); experiment: co-purification; six subunits co-expressed in E. coli from one plasmid; captured by the Twin-Strep-tag on Smc6 (StrepTrap), then heparin and gel filtration; single species on analytical gel filtration, peak fractions on SDS-PAGE
T1 construct: Smc6, S. cerevisiae; stood in the assays as a subunit of the hexamer or octamer; also called Smc6-Twin-Strep; Smc6-3C-TS; source: E. coli (DE3) Rosetta, co-expressed with the other subunits of the hexamer, purified as part of the complex; not shown: Twin-Strep (after a 3C site), C-terminal, kept
T1 sequence (looked up): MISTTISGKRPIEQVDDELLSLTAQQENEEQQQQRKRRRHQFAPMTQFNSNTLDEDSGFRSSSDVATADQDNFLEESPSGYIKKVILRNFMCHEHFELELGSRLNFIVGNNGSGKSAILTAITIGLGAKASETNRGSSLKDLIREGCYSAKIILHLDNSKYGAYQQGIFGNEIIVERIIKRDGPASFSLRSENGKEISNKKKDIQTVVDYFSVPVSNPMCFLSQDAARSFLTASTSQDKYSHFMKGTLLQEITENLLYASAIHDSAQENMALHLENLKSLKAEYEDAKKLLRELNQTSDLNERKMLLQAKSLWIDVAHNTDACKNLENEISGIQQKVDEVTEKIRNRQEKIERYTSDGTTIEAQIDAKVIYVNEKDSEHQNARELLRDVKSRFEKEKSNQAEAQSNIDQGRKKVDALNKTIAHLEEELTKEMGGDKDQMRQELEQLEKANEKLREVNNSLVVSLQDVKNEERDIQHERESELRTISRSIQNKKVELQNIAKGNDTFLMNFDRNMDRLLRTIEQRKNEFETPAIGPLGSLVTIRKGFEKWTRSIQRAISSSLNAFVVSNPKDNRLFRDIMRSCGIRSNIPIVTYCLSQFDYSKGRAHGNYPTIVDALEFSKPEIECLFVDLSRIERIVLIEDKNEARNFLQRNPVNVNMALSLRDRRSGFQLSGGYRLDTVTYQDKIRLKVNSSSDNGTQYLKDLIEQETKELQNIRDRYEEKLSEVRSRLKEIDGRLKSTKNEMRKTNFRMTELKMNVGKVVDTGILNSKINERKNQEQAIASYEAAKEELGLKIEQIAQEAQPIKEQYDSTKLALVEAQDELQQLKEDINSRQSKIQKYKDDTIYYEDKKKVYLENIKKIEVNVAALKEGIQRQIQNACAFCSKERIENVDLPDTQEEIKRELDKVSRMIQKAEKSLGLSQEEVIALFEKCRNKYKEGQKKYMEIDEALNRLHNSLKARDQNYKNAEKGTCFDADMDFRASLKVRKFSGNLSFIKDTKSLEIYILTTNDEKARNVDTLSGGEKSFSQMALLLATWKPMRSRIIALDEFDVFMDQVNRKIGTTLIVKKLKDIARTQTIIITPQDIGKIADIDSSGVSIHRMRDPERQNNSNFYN

Nse4 (S. cerevisiae) = molecular target: T2, Nse4 (S. cerevisiae) (UniProt P43124); experiment: cross-linking; XL-MS with PhoX (0.25 mM, 20 min, RT) on the octamer, 1.6 µM; ATPase buffer (10 mM Hepes-KOH pH 7.5, 150 mM potassium acetate, 2 mM MgCl2, 20% glycerol); without and with 2 mM ATP and 16 nM plasmid DNA; wild-type and Smc5(EQ)/Smc6(EQ) octamers; both purified
T2 sequence: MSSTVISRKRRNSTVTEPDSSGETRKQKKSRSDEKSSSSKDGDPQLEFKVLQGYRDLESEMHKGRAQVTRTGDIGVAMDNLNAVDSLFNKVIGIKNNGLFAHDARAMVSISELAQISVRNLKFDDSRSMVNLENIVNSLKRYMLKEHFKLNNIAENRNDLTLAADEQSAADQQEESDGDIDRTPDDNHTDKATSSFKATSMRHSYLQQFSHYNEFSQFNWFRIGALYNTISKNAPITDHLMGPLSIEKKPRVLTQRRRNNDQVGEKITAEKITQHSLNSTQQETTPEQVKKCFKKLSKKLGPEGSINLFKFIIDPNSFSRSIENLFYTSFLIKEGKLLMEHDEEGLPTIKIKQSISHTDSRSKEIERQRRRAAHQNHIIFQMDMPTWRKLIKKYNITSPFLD

Smc5 (S. cerevisiae) = molecular target: T3, Smc5 (S. cerevisiae) (UniProt Q08204); experiment: as above
T3 sequence: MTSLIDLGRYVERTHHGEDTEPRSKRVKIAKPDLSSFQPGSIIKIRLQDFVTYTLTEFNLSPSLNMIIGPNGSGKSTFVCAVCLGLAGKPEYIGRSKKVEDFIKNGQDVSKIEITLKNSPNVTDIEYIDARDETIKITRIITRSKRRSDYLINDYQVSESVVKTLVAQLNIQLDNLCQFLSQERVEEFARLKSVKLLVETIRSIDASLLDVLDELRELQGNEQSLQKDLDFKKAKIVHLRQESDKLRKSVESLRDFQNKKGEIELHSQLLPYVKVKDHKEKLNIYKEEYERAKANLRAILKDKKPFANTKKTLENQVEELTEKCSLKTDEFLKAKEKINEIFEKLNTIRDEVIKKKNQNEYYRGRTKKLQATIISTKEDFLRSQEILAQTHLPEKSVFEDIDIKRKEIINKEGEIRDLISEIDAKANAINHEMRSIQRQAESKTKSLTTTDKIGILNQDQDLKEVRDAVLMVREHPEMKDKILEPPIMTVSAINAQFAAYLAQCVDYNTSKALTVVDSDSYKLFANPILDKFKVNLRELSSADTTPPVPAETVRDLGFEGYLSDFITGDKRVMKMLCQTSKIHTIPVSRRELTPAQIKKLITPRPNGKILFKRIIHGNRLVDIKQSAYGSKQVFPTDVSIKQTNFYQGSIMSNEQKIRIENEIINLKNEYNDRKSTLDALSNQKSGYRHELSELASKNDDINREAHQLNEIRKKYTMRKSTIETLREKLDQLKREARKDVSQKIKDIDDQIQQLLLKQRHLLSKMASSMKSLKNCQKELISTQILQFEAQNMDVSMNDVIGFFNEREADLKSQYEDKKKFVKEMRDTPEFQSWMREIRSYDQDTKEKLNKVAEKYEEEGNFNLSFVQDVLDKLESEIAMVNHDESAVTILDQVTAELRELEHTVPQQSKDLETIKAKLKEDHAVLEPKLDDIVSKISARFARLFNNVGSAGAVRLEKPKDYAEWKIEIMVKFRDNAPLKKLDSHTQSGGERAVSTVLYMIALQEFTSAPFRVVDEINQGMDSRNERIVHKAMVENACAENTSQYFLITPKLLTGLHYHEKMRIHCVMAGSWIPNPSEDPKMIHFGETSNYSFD

Smc6-3C-Twin-Strep [2] = molecular target: T1, Smc6-3C-Twin-Strep; experiment: pull-down; purified octamer pulled down via Smc6-Twin-Strep, in the absence or presence of ATP and plasmid DNA, conditions as for XL-MS; both purified

Measured: binding

B1: Nse3 (natural protein, S. cerevisiae, UniProt Q05541 1-303, looked up)
chain: MSSIDNDSDVDLTEDLAVAKIVKENPVARKMVRYILSRGESQNSIITRNKLQSVIHEAAREENIAKPSFSKMFMDINAILYNVYGFELQGLPSKNNMNAGGNGSNSNTNKSMPEPLGHRAQKFILLNNVPHSKNFDDFKILQSAHTYEELIVTGEYIGDDIASGTSNTLESKLSTDRDLVYKGVLSVILCIVFFSKNNILHQELIKFLETFGIPSDGSKIAILNITIEDLIKSLEKREYIVRLEEKSDTDGEVISYRIGRRTQAELGLESLEKLVQEIMGLEKEQTKSLHDDIIKSIGDSYSI
notes: Nse3, S. cerevisiae; source: E. coli (DE3) Rosetta, co-expressed with the other subunits of the hexamer, purified as part of the complex
binds: Smc6-3C-Twin-Strep [1] | Nse4 (S. cerevisiae) | Smc5 (S. cerevisiae) | Smc6-3C-Twin-Strep [2]
